Experimental data: the supplement of paper PMC5949888
Most values lie at the floor of the assay. Slopes are relative: functional sequences can read slightly below zero.

These substances were tested on Saccharomyces cerevisiae PS128 hsf1 delta, HSF1(1-493) fusion (assay: growth estimate (transactivation domain function in HSF1 fusion, heat-shock survival) (a.u. (slope of normalised read count over time)); higher = stronger growth at 37°C, i.e. more transactivation activity). Conditions: library: random library.
Description: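 Random 60-nt DNA library encoding peptides of up to 20 aa, fused to the C-terminus of yeast HSF1 residues 1-493 (C-terminal TAD deleted) and expressed from the native HSF1 promoter on a CEN plasmid in hsf1-deleted S. cerevisiae PS128. Cells were selected at 37°C on -trp 5-FOA plates for 0, 2, 4, 6 and 8 days and amplicons were sequenced. Growth estimate is the slope of a robust linear fit of total-sum-normalised read counts (normalised to the first time point) over time, using at least 2 replicates. Sequences are classed functional (TAD activity) above a threshold of -0.13, set from stop-codon control sequences.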
With PSALGVSQAPPGCE the growth estimate was under -0.25.
Work on QNVGG yielded a growth estimate of under -0.25.
For DRGESQAN, the growth estimate was -0.243.
RNGAVN was tested, and the growth estimate was under -0.25.
EPTSQGKGARDFRLKDQLVS gave a growth estimate of under -0.25.
RRFFGRDSC gave a growth estimate of under -0.25.
ILHKAPQRSFTRGVAGLAKG showed a growth estimate of under -0.25.
FRTGSGRSLSMTPRGACYTD showed a growth estimate of under -0.25.
MWES was tested, and the growth estimate was under -0.25.
With VVYLARSRGCRRPSTSVKG the growth estimate was under -0.25.
In the case of YTSVHFGETGKPPAPSDTGV, the growth estimate is reported as under -0.25.
KQPAIGDIRTSTIQCTHVPS showed a growth estimate of under -0.25.
SIKCN showed a growth estimate of under -0.25.
With SLGGGEVRTSPVKIESGLTG the growth estimate was under -0.25.
In the case of RQGT, the growth estimate is reported as under -0.25.
For IGR, the growth estimate was under -0.25.
In the case of GTGGRVS, the growth estimate is reported as under -0.25.
With VMKPSAVCICIRLIRDYFVP the growth estimate was under -0.25.
With TLRTSYAG the growth estimate was under -0.25.
Work on RCNGSFSGVVFAVR yielded a growth estimate of under -0.25.
RDAGEAHGRATPAFTIC was tested, and the growth estimate was under -0.25.
With MSRHPGYAL the growth estimate was under -0.25.
In the case of FLFPKSVRFKSAISGKIVKG, the growth estimate is reported as under -0.25.
For YGLGAVRS, the growth estimate was -0.245.
Substance QRELVTAPIKECAKALTACP has a growth estimate of under -0.25.
GHR was tested, and the growth estimate was under -0.25.
NTEFTHQQSKVPNISAVRGS showed a growth estimate of under -0.25.
VIGTNGRALRLGTCFDGTIM was tested, and the growth estimate was under -0.25.
Substance SPCNASFMSTRTRATSPYDT has a growth estimate of under -0.25.
TLKKFRGGGTAPPTHGFMAG was tested, and the growth estimate was under -0.25.
VRVP was tested, and the growth estimate was under -0.25.
Work on HVREALRAQRDNP yielded a growth estimate of under -0.25.
ASVKPSAPPAKVSVWGNA showed a growth estimate of under -0.25.
LFVGAHHS was tested, and the growth estimate was -0.243.
RKKQIREWLTGSTMPHAWYP was tested, and the growth estimate was under -0.25.
SLVTRAVAYTIRRYREKFRS was tested, and the growth estimate was under -0.25.
SEVRIRDCKQSSTLARSNPH showed a growth estimate of under -0.25.
In the case of HNALLITRPVRFL, the growth estimate is reported as under -0.25.
Work on GEDSYGAWGPIRGVGGPKDG yielded a growth estimate of under -0.25.
SSHGRNT gave a growth estimate of under -0.25.
With LLLRVTPLK the growth estimate was under -0.25.
In the case of TAIDSRRQVRWGSANGRMSH, the growth estimate is reported as under -0.25.
With VLYVIEQGSS the growth estimate was under -0.25.
In the case of IGTRLIWGVG, the growth estimate is reported as -0.221.
For WLAVESRSRVQLDKVYELWG, the growth estimate was under -0.25.
HCLVSTDGPHPFRQADPRQ was tested, and the growth estimate was under -0.25.
LFISSSEPSQ showed a growth estimate of under -0.25.
With KRNPHGHRCGGICGSCSFAA the growth estimate was under -0.25.
In the case of VGLHTRLT, the growth estimate is reported as under -0.25.
TRLCVTTY was tested, and the growth estimate was under -0.25.
ELCGVC was tested, and the growth estimate was under -0.25.
CSRSGDDCCRRCVSVYEGMG showed a growth estimate of under -0.25.
With VVVRL the growth estimate was under -0.25.
NRCLQFG was tested, and the growth estimate was under -0.25.
RCVLVWTQPGNRCWGSEESC was tested, and the growth estimate was under -0.25.
LRGVSPQCTSEGVQAESLFR gave a growth estimate of -0.245.
With CSVGWWTVSLGIVNLRTEQS the growth estimate was under -0.25.
Substance VGARCFCPREGPFNLPVRSK has a growth estimate of under -0.25.
For CTISR, the growth estimate was under -0.25.
With GGGTFSITRICPPSDQ the growth estimate was under -0.25.
With TVHGMVRTSLIG the growth estimate was under -0.25.
QATAVPVSTL was tested, and the growth estimate was under -0.25.
With LGNLCLSGLINSNVSYVFGG the growth estimate was under -0.25.
In the case of LGIG, the growth estimate is reported as under -0.25.
Work on SCTPRDPGTDGLFRFAAHGR yielded a growth estimate of under -0.25.
With LVCYLMPLTDRPAVVDPGLR the growth estimate was under -0.25.
With GGSDCEMRLHCVLTVRDH the growth estimate was under -0.25.
In the case of GSLTLARHSILVGICSRHPR, the growth estimate is reported as under -0.25.
YLGAQLLRV was tested, and the growth estimate was under -0.25.
Substance TQYIRKYQARQRKYDAHKSQ has a growth estimate of under -0.25.
YSSGPGRPRRIGGYYGIRIK gave a growth estimate of under -0.25.
Substance PGQLQIGGPVSPLYLSLRDW has a growth estimate of under -0.25.
CTMSGADTPLL gave a growth estimate of under -0.25.
For FRGY, the growth estimate was under -0.25.
SGYQVCSCGADLPYRSRLRL gave a growth estimate of under -0.25.
With PRGAIRARLH the growth estimate was under -0.25.
Work on TVQFGA yielded a growth estimate of under -0.25.
Work on AGVESTYTMMQCTGDYVRDA yielded a growth estimate of under -0.25.
IDASSEIEGVHTPDGSRDDV showed a growth estimate of under -0.25.
KNTGGSSSTLRPYIGD was tested, and the growth estimate was under -0.25.
Substance VRCVNLCLGFFVESTRTPFH has a growth estimate of under -0.25.
Work on LFRVPRAKRHSG yielded a growth estimate of under -0.25.
CGSVRCRDAGRVGTHRVWGR showed a growth estimate of under -0.25.
CGTLSDC showed a growth estimate of 0.127.
In the case of CKLFHACQLLVKNGSGPAPN, the growth estimate is reported as under -0.25.
In the case of GTRCKPAPV, the growth estimate is reported as under -0.25.
YGNFCLWREHMQTGLLEYL gave a growth estimate of under -0.25.
With GKLSHLVGGCVERERDDRIS the growth estimate was under -0.25.
Work on SGIRYIQGCEQVRPSLKGM yielded a growth estimate of -0.172.
HPMRRIIR gave a growth estimate of under -0.25.
In the case of SSLGLSECLSVLWIGLHHRP, the growth estimate is reported as under -0.25.
Substance ILDMKSPHLRQHGKSGPPPW has a growth estimate of under -0.25.
With LLWCWGVARCIDCCSSKSCL the growth estimate was under -0.25.
ATPRCSIPSVTYYLLCA showed a growth estimate of under -0.25.
EYALCSFECGQCRFGIDPFR showed a growth estimate of -0.0964.
For SLCAVPDRYPDEVRRTWPVA, the growth estimate was -0.246.
With ILPTLSPSGIVGGQEAGVMW the growth estimate was under -0.25.
In the case of IWGKFWTV, the growth estimate is reported as under -0.25.
Substance SHQEY has a growth estimate of under -0.25.
Substance RRTRVGLLGRGDPEFLGNGP has a growth estimate of under -0.25.
PNAIKTGLSVLMLDKPRDGT gave a growth estimate of under -0.25.
Work on ASPTRRFALGH yielded a growth estimate of under -0.25.
Substance ADVECG has a growth estimate of under -0.25.
SSVVFTCAISGAGLFDNRWL was tested, and the growth estimate was under -0.25.
Work on WSNFSVVKKGGRAESADVDP yielded a growth estimate of under -0.25.
PPMVLGIGTAYHDLGCFDDE was tested, and the growth estimate was under -0.25.
With LTAYAFELAIEGDRHPYAT the growth estimate was under -0.25.
With VLVCTGSGGFELSRVTDAQR the growth estimate was under -0.25.
For PAKIAER, the growth estimate was under -0.25.
For DQVPKP, the growth estimate was -0.145.
For TKGRWRVGFVGWVPSVGQCA, the growth estimate was under -0.25.
In the case of KNTATSRAQSRVADAKVDGH, the growth estimate is reported as under -0.25.
Work on RLGLAGTPFAGARQLHSSCH yielded a growth estimate of under -0.25.
In the case of LYVDRIMRSDPKWACPRLSQ, the growth estimate is reported as under -0.25.
RLNGVKADGAIRAEDVLGHN showed a growth estimate of under -0.25.
In the case of RLRT, the growth estimate is reported as under -0.25.
For FSLRYRSVDDTQMETSPPPG, the growth estimate was under -0.25.
SQGFSIAERDHRTPQDPRR showed a growth estimate of under -0.25.
ICGQHIVGRILEADVALISW gave a growth estimate of under -0.25.
HAM showed a growth estimate of under -0.25.
YADVLHEVPSKCFPGSWAGE gave a growth estimate of under -0.25.
Substance VELYGKGLIA has a growth estimate of under -0.25.
Work on RRIYYAILCTSTYESRAAPC yielded a growth estimate of under -0.25.
TVVEFVG was tested, and the growth estimate was under -0.25.
RVESPKCTMDIFSMGLCGQI was tested, and the growth estimate was under -0.25.
Substance WGYRLCLRAYSGLSLSALFL has a growth estimate of under -0.25.
In the case of PGRATGDNPTHRITCFGESP, the growth estimate is reported as under -0.25.
Substance PLPVQSV has a growth estimate of under -0.25.
NPDAMSTDSASGCSTDVSYG showed a growth estimate of under -0.25.
RIDGSIPLYPVAAFGQWMSR showed a growth estimate of under -0.25.
For SYRLLIALLNTAID, the growth estimate was under -0.25.
Substance CCPWLRGRTFRRYKVGASGV has a growth estimate of under -0.25.
Work on SNLLRPERLL yielded a growth estimate of under -0.25.
Substance EGQS has a growth estimate of under -0.25.
Substance SARDTAAGWPGGSGDPGWIK has a growth estimate of under -0.25.
LRVSGSE gave a growth estimate of under -0.25.
STACLTRVLESNAYVSRLES was tested, and the growth estimate was under -0.25.
For LLELIKNEPN, the growth estimate was under -0.25.
PNVMLKE gave a growth estimate of -0.197.
Work on RKQNAKSEIRTGQL yielded a growth estimate of under -0.25.
For GWVSALAPPVGPL, the growth estimate was under -0.25.
Work on ARGGFRRGVSDAP yielded a growth estimate of under -0.25.
Substance GKTAWSCECKSSLRQLMSGR has a growth estimate of under -0.25.
In the case of KDHLSEPGSLNGLLLHSLVI, the growth estimate is reported as under -0.25.
PTATRDKPT was tested, and the growth estimate was under -0.25.
SGDSIYATRSWRLPVPNACM showed a growth estimate of under -0.25.
DASGAQPLNGPLGWACRLWF gave a growth estimate of under -0.25.
MQGV gave a growth estimate of under -0.25.
SSQGNRRS was tested, and the growth estimate was under -0.25.
In the case of TYHGWFAGYSRCER, the growth estimate is reported as under -0.25.
Work on VTNLLRPLTPYRRYGDDPSG yielded a growth estimate of under -0.25.
